For at least one entry, the source does not settle the construct or the ends of the probe. Where cells or extracts were used, other partners may take part.
Target: PU.1 (wild type, BMDM nuclear extract) (mouse) (UniProt P17433)
Experiment: EMSA, supershift
Details: BMDM nuclear extract, day 1 and 7; 5 ug nuclear extract, 6% native acrylamide gel, 0.5X TBE, chemiluminescent detection; binding buffer, pH and temperature not given; protein in an extract; label: 5' biotin

“CGCGCAGTGGGGGCTGCGGGAAGGCGGGGAGAAGAAAGGCAGGGGGCGGGGCCTGGCGGCGGAGCCCCGCGCGCCG (double strand) [KLF4 promoter 76 bp oligo (-118/-113 PU.1 element)]”: binds.

— PMC3973678
